No constants are given. Whether binding was seen depends on the method and setting. In cells and extracts the contact can be indirect. These calls come from enrichment with a bait or labelling near it, and not all partners need be listed.
Target: ROR1 (receptor tyrosine kinase-like orphan receptor 1) (human) (UniProt Q01973)
Experiment: pull-down from D54 glioma lysate with GRP78-Biotin on neutravidin-agarose, PAGE and mass spectrometry

By UniProt entry, the sequences of proteins in these tests, tags left out. Residues count along the entry.
UniProt Q01973, residues 30-937: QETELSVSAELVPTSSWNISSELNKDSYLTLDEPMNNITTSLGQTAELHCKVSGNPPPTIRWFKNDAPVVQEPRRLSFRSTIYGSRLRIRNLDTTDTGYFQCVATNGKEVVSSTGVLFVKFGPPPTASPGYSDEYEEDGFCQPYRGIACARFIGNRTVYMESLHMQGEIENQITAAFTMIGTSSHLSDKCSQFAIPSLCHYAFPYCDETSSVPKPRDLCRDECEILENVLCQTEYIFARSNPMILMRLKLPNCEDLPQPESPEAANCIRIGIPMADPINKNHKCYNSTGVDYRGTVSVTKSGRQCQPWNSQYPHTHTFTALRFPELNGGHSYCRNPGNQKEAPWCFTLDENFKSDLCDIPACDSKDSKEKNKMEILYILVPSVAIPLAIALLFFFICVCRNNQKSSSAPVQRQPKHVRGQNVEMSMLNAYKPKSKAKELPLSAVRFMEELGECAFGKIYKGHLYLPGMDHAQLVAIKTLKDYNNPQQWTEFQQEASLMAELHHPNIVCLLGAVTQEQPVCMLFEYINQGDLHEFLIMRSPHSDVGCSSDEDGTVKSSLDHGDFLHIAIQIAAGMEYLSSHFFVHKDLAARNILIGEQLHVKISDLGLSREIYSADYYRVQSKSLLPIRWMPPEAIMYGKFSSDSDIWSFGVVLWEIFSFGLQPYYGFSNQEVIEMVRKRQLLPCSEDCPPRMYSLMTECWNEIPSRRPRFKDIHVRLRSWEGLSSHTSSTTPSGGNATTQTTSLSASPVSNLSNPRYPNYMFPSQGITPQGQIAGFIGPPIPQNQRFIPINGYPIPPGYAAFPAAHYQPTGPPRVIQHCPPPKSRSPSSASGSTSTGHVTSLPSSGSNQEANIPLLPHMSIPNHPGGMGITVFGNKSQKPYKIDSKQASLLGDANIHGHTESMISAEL
UniProt P11021, residues 19-654: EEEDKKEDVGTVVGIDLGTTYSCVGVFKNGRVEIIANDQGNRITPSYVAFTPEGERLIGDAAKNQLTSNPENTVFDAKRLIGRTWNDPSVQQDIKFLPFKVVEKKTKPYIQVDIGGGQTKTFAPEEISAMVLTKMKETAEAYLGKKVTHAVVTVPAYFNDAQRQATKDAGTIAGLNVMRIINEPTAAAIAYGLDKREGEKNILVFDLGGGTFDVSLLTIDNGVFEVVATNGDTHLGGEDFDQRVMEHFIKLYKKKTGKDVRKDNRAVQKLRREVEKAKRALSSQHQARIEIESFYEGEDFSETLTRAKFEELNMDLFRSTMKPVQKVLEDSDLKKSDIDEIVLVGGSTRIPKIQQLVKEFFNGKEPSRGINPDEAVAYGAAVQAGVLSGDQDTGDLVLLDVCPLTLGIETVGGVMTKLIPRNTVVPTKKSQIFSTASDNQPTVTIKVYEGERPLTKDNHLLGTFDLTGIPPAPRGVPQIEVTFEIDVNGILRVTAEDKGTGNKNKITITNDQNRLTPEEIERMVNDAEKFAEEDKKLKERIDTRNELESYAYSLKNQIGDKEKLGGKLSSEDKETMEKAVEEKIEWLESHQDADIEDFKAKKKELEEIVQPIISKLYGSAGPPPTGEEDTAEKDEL

With “GRP78-Biotin (GRP78 (StressMarq) labeled with Biotin) (from UniProt P11021 19-654)” the binding was “binds”.

— patent US20190142913A1 (CREATIVE BIOTHERAPEUTICS, published 2019)
